From paper doi:10.1101/2024.05.06.592684
No constants are given. Whether binding was seen depends on the method and setting. Binding seen in cells or lysates may run through a third protein. Where a sequence is shown, tags or fusion partners need not be part of it.

Assays:
[1] = target: T1, PYE fused to the N-terminal part of YFP (nYFP-PYE) (Arabidopsis thaliana) (UniProt Q9SN74); experiment: split reporter
T1 sequence: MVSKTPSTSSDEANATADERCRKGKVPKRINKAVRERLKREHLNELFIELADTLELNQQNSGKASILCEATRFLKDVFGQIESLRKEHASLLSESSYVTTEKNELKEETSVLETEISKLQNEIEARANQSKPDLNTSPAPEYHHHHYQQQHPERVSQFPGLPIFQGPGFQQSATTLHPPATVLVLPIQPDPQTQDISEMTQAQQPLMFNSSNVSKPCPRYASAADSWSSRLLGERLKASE

[2] = target: T2, HY5 fused with C-terminal part of YFP (HY5-cYFP) (Arabidopsis thaliana) (UniProt O24646); experiment: split reporter
T2 sequence: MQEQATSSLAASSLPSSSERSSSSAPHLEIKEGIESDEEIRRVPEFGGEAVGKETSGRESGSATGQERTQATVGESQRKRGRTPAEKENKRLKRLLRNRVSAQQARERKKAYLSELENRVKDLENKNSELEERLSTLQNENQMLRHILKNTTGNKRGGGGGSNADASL

Substance | binding [1] | binding [2]
cYFP alone (C-terminal part of YFP) (domain or fragment) | no binding | 
nYFP alone (N-terminal part of YFP) (domain or fragment) |  | no binding
